Percent effect of library compounds

Amino acid sequences for entries named in this document (tags omitted).
UniProt P9WPC5, whole entry: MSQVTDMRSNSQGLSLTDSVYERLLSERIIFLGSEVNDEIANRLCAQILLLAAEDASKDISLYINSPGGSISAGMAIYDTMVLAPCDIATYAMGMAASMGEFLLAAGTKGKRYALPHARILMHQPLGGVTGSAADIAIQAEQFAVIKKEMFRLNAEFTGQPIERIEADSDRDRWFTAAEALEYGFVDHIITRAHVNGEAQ
UniProt P9WPC3, whole entry partner: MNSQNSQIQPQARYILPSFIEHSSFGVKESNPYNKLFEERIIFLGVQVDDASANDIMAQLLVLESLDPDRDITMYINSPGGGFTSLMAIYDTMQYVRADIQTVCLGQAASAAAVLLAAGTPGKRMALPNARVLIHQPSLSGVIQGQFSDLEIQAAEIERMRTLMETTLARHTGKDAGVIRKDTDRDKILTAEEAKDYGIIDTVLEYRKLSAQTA
UniProt P9WFT3, whole entry: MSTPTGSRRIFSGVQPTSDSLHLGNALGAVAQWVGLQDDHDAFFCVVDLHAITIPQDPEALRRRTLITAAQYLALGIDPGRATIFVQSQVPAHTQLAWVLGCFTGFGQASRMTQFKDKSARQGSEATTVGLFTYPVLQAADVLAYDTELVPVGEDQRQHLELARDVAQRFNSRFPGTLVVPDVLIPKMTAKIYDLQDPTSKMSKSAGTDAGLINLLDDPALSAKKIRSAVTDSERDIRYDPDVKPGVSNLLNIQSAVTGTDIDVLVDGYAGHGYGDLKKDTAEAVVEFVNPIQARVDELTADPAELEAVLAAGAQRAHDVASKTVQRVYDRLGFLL

A: 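Protease assay of ClpP1P2, read by the AMC dye that it sets free. Target: ClpP1P2, Mycobacterium tuberculosis (UniProt P9WPC5 and UniProt P9WPC3). Concentration: 50 µM. Direction is inferred from only a few compounds that gave an IC50; most scored high, so higher reads as stronger inhibition. Most other retested compounds had strongly negative values. Size under these conditions: about 69,000 compounds, about 10 of them at 50% or above in at least one test.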
B: 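Tryptophan-tRNA ligase, Mycobacterium tuberculosis (UniProt P9WFT3). Enzyme assay of tryptophanyl-tRNA synthetase; the read-out is not stated. Compounds at 10 µM. Higher most likely means stronger inhibition; the record gives no direction and few retests gave an IC50. Size under these conditions: about 65,000 compounds, about 64 of them at 50% or above in at least one test.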

The filed quantity is “Percent Effect” (%).
The controls that fix the scale are not given in the record; negative values are as filed.
Compounds were drawn at random from those tested, without regard to their results.
A dash means the value is not listed here; it may have been measured.

| Compound | A | B |
|---|---|---|
| `COCCN1C[C@H]2CC[C@@]3(N=C(C)N(CC4CC4)C3=O)[C@H]2C1` | 4.046 | 1.313 |
| `O=C(c1cc(-c2cccs2)cs1)N1CCSCC1` | -25.46 | -12.86 |
| `Cc1ccc(C(=O)N2CC[C@H]3[C@H]2CCN3CC2CCOCC2)cn1` | -9.242 | -0.2274 |
| `Cc1ccc(S(=O)(=O)NC2CNC(=O)C2)cc1C` (configuration not stated) | -5.646 | 1.639 |
| `CC(C)(C)C(=O)NCCC(=O)NC(C)(C)c1ccc2c(c1)OCCO2` | 7.113 | -3.207 |
| `CN1CCCC(c2cccc(CCC(N)=O)n2)C1` (configuration not stated) | 10.7 | - |
| `Cc1cccc(CO[C@@H]2CC[C@H]3[C@H]2OCCN3Cc2ccsc2)n1` | -2.088 | 0.3148 |
| `CSCCC(=O)N1CCCC(c2nccn2Cc2ccncc2)C1` (configuration not stated) | -8.794 | -4.175 |
| `CCC(C(=O)N(C)Cc1cc(-c2ccccc2)n[nH]1)n1cccn1` (configuration not stated) | -5.54 | -1.882 |
| `Cc1cccc(Cc2cc(C)nc(C3CCCNC3)c2)c1` (configuration not stated) | -7.901 | 21.49 |
| `Cc1nc(-c2ccccc2)sc1CSCCC(N)=O` | -7.237 | 14.03 |
| `O=C1CC[C@H]2CN(Cc3ccc(Cl)s3)CC[C@H]2N1CCc1c[nH]cn1` | -9.233 | 0.4112 |
| `Cc1ccccc1C(C)NC(=O)CSCC#N` (configuration not stated) | 15.89 | 4.891 |
| `COc1ccc2c(C)c(C(=O)NC3CCCOC3)oc2c1` (configuration not stated) | -4.676 | 0.7498 |
| `CC(=O)Nc1nc(C(=O)NCCOc2ccc(C)cc2)cs1` | 0.1077 | -1.958 |
| `CC(C(=O)NC1CC1)S(=O)(=O)Cc1noc(C(C)(C)C)n1` (configuration not stated) | 4.962 | 2.873 |
| `O=C(NCc1ccc(F)cc1)N1CCN(CC(O)C2CC2)CC1` (configuration not stated) | -4.789 | 0.3393 |
| `CC(=O)NCC1CCC2(CCN(c3nccc(C4CCCC4)n3)CC2)O1` (configuration not stated) | -23.4 | -1.051 |
| `N#Cc1cccc(NC(=O)N2CCCC(N3CCCC3=O)C2)c1` (configuration not stated) | -0.8278 | 0.1833 |
| `CCCc1noc(CCC(=O)N2CCCC(c3ccn[nH]3)C2)n1` (configuration not stated) | -3.665 | 1.817 |
| `CN1CCC(N2C[C@H](O)C[C@H]2c2nc(Cc3ccccc3)no2)CC1` | -3.962 | -0.8283 |
| `O=c1c2ccccc2nnn1CN(CC1CCOC1)C1CC1` (configuration not stated) | -9.403 | -8.281 |
| `Cc1ccc(C)c(CN2CCOC(c3noc(C)n3)C2)c1` (configuration not stated) | -8.534 | -0.768 |
| `CN(CCc1ccncc1)C(=O)C1CSCN1C(=O)C(C)(C)C` (configuration not stated) | 0.8297 | 3.186 |
| `COc1ccc(C(=O)NCc2ccc(C(=O)O)o2)cc1` | -4.321 | 8.891 |
| `Cc1ccc(O[C@@H]2C[C@H]3CN(C(=O)c4cnccn4)CCN3C2)cc1` | -3.784 | 3.936 |
| `COc1ccccc1OCC(=O)NS(=O)(=O)c1ccccc1F` | -14.67 | 1.006 |
| `Cc1noc(C)c1CN(Cc1ccccc1)C(C)CN1CCOCC1` (configuration not stated) | 0.3325 | -5.211 |
| `O=C(NC1CCN(c2cccc(C(F)(F)F)n2)CC1)C1CC1` | 8.254 | 7.897 |
| `O=C([C@H]1CCCO1)N1CCOC2(CCCN(c3ncccc3F)C2)C1` (some centres not stated) | 7.683 | -0.6634 |
| `O=C(c1ccncc1)N1CCC2(CC1)CC(Oc1cccnc1)CO2` (configuration not stated) | 2.374 | 1.438 |
| `CCCc1cc(CNC2CCN(c3nc(C)cc(C)n3)CC2)on1` | 4.92 | 1.175 |
| `O=C(Cc1cccs1)NCC1(O)CCc2ccccc2C1` (configuration not stated) | 0.8402 | -1.372 |
| `CCCS(=O)(=O)N1CCN(C(C)(C)CO)CC1` | 0.8985 | -3.344 |
| `OCCCN1CCOC(c2ccc(F)cc2)C1` (configuration not stated) | 13.33 | 1.748 |
| `CNS(=O)(=O)c1ccccc1N1CCN(C(C)C(N)=O)CC1` (configuration not stated) | 1.7 | 0.1874 |
| `Cn1cccc1C(=O)NCc1cn2c(n1)CN(Cc1ccccn1)CC2` | 0.9246 | -5.838 |
| `OCC1(CCOc2ccccc2)CCN(c2ccc(Cl)cn2)CC1` | 9.039 | 5.301 |
| `COCCN(CC1CCCN(C2Cc3ccccc3C2)C1)C(=O)CO` (configuration not stated) | 1.706 | -1.883 |
| `CN(CCc1ccccn1)C(=O)C(O)c1cc(Cl)cc(Cl)c1` (configuration not stated) | 4.145 | 0.9517 |
| `CC(=O)N1CCN(CC2CCOc3ccccc3C2)CC1` (configuration not stated) | 2.486 | 13.84 |
| `CCC1(CO)CCCN(C(=O)c2ccc(N3CCN(C)CC3)cc2)C1` (configuration not stated) | 1.906 | 3.905 |
| `Cn1ncnc1CNC1CCc2cc(Cl)ccc21` (configuration not stated) | -15.78 | 5.719 |
| `O=C(c1cscn1)N1CCC(Cc2cnc3[nH]ccc3c2)C1` (configuration not stated) | 14.16 | - |
| `CC(=O)N1CCCCC1c1cc(CO)[nH]n1` (configuration not stated) | 1.378 | -0.5853 |
| `CCc1nnc(CN(C)c2nc(C3CCCC3)nc3c2cnn3C)o1` | 9.595 | -3.412 |
| `CS(=O)(=O)NCC1CCCN(c2ccc(C#N)cn2)C1` (configuration not stated) | 6.826 | -0.4836 |
| `CC(C)Cc1noc(CN(C)C(=O)C2COc3ccccc3C2)n1` (configuration not stated) | 7.975 | 0.4143 |
| `CC(C)C(=O)N1CCC(C)(c2cc[nH]n2)CC1` | -2.667 | -5.855 |
| `CSCCC(=O)N1CCCN(c2ccccc2C)CC1` | 5.828 | 10.29 |
| `Cn1c(N2CCOCC2)nc2cc(C(=O)NCc3cccnc3)ccc21` | -26.88 | 0.8911 |
| `COc1cccc(S(=O)(=O)N2CCOC(C)(C(N)=O)C2)c1` (configuration not stated) | -11.43 | -6.07 |
| `CC(C)NC(=O)Nc1ccccc1CN1CCOCC1` | 1.292 | -4.485 |
| `Cc1nn(C)c(Cl)c1C1CCCN1CC(=O)Nc1cccnc1` (configuration not stated) | -8.9 | -0.9887 |
| `NC(=O)C1CCN(C(=O)Cn2ccc3cc(Br)ccc32)CC1` | 10.05 | -1.05 |
| `COc1ccccc1OC1(C(=O)O)CCN(c2nccnc2C)CC1` | -0.9765 | 1.069 |
| `Cc1nn(C)c(C)c1CCC(=O)NCc1csc(N2CCCC2)n1` | -2.47 | 4.459 |
| `CC(C)(CN1C[C@H](Nc2ncccn2)[C@@H](C2CC2)C1)N1CCOCC1` | -31.35 | 4.498 |
| `Cc1oc(C(=O)O)cc1S(=O)(=O)Nc1cccc(-c2nccs2)c1` | -9.372 | -0.09551 |
| `Nc1cc2c(nn1)CCN(C(=O)c1ccc(-c3ccco3)[nH]c1=O)C2` | -39.53 | -3.638 |
| `O=C(NC1CC(=O)N(C2Cc3ccccc3C2)C1)c1ccsc1` (configuration not stated) | -2.507 | 0.4244 |
| `O=C(c1cccnc1)N1Cc2nccn2CC(COc2cccnc2)C1` (configuration not stated) | -16.6 | 1.862 |
| `C=C(C)COc1ccccc1NC(=O)N1CCOCC(CO)C1` (configuration not stated) | -9.66 | 6.42 |
| `CCN(C)c1ncnc2c1CCN(c1ccc(C)nn1)CC2` | -1.045 | - |
| `Cn1ccc2c(-c3ccc(NC4CC4)nn3)ccnc21` | -9.082 | -9.252 |
| `CCc1nc(C)ncc1C(=O)N1CC(C)CN(C)c2ccccc21` (configuration not stated) | -5.27 | 2.728 |
| `CCN1CCC(Cn2ccc3c(OC)c(OC)ccc3c2=O)C1` (configuration not stated) | 2.898 | 1.413 |
| `CN(CCOc1cccc(CN)c1)C1CCOCC1` | -5.573 | -3.947 |
| `Cn1cnc(S(=O)(=O)N2CCCc3cc(F)cc(F)c32)c1Cl` | 14.06 | 2.245 |
| `CNC(=O)CN1CCOCC2(C1)CN(Cc1csnn1)CCO2` (configuration not stated) | 0.4744 | -5.642 |
| `CCc1ncc(C(=O)N2CCCC2Cn2cccn2)s1` (configuration not stated) | 11.78 | 19.55 |
| `CCC(NC(=O)CCCNC(=O)OC)c1cc(F)ccc1F` (configuration not stated) | -15.08 | 4.6 |
| `Cc1ccc(N2Cc3c(CN(C)C)nn(C)c3C2)nn1` | 2.779 | 0.6342 |
| `Cc1occc1C(=O)NCC1OCCc2cn(C)nc21` (configuration not stated) | 2.402 | - |

Some entries from above, unchanged:

Compound,A,B
Cn1c(N2CCOCC2)nc2cc(C(=O)NCc3cccnc3)ccc21,-26.88,0.8911
Cn1cnc(S(=O)(=O)N2CCCc3cc(F)cc(F)c32)c1Cl,14.06,2.245
CCc1ncc(C(=O)N2CCCC2Cn2cccn2)s1 (configuration not stated),11.78,19.55
O=C([C@H]1CCCO1)N1CCOC2(CCCN(c3ncccc3F)C2)C1 (some centres not stated),7.683,-0.6634
CCCS(=O)(=O)N1CCN(C(C)(C)CO)CC1,0.8985,-3.344
O=C(c1cc(-c2cccs2)cs1)N1CCSCC1,-25.46,-12.86
COCCN1C[C@H]2CC[C@@]3(N=C(C)N(CC4CC4)C3=O)[C@H]2C1,4.046,1.313
O=C1CC[C@H]2CN(Cc3ccc(Cl)s3)CC[C@H]2N1CCc1c[nH]cn1,-9.233,0.4112
CC(C)Cc1noc(CN(C)C(=O)C2COc3ccccc3C2)n1 (configuration not stated),7.975,0.4143

Source: ChEMBL document CHEMBL3988442, “University of Dundee, Small-Polar-MMV Screening Library” (2021).